The text below walks through data of PMC6956814, “Deubiquitinase USP28 inhibits ubiquitin ligase KLHL2-mediated uridine-cytidine kinase 1 degradation and confers sensitivity to 5'-azacytidine-resistant human leukemia cells” (Theranostics, 2020).

Experiment [1] has as its target C-terminal fragment of UCK1 (human). The experiment can be described thus: pull-down; GST-tagged fragments of UCK1 (and truncated KLHL2 fragments) tested against the other protein, immunoblot; Figure 1F. (In western blotting, separated proteins are transferred to a membrane and probed.)
In experiment [2] the target is N-terminal fragment of UCK1 (human). The experiment is described as above.

These are yes or no findings as the source states them, for the method shown. Binding seen in cells or lysates may run through a third protein. Tags and fused reporters may be left off the sequences shown.

B1: His-tagged KLHL2 protein (protein, UniProt O95198 1-593)
chain: METPPLPPACTKQGHQKPLDSKDDNTEKHCPVTVNPWHMKKAFKVMNELRSQNLLCDVTIVAEDMEISAHRVVLAACSPYFHAMFTGEMSESRAKRVRIKEVDGWTLRMLIDYVYTAEIQVTEENVQVLLPAAGLLQLQDVKKTCCEFLESQLHPVNCLGIRAFADMHACTDLLNKANTYAEQHFADVVLSEEFLNLGIEQVCSLISSDKLTISSEEKVFEAVIAWVNHDKDVRQEFMARLMEHVRLPLLPREYLVQRVEEEALVKNSSACKDYLIEAMKYHLLPTEQRILMKSVRTRLRTPMNLPKLMVVVGGQAPKAIRSVECYDFKEERWHQVAELPSRRCRAGMVYMAGLVFAVGGFNGSLRVRTVDSYDPVKDQWTSVANMRDRRSTLGAAVLNGLLYAVGGFDGSTGLSSVEAYNIKSNEWFHVAPMNTRRSSVGVGVVGGLLYAVGGYDGASRQCLSTVECYNATTNEWTYIAEMSTRRSGAGVGVLNNLLYAVGGHDGPLVRKSVEVYDPTTNAWRQVADMNMCRRNAGVCAVNGLLYVVGGDDGSCNLASVEYYNPTTDKWTVVSSCMSTGRSYAGVTVIDKPL
As for B1, the binding result in experiment [1] and in experiment [2] was “no binding” throughout.
